Experimental data: the supplement of paper PMC10849652
This is one part of the list.

By UniProt entry, the sequences of proteins in these tests, tags left out. Where a name states a change or a piece, a line headed by the entry shows the natural chain unless it says otherwise.
UniProt Q92793, whole entry, looked up: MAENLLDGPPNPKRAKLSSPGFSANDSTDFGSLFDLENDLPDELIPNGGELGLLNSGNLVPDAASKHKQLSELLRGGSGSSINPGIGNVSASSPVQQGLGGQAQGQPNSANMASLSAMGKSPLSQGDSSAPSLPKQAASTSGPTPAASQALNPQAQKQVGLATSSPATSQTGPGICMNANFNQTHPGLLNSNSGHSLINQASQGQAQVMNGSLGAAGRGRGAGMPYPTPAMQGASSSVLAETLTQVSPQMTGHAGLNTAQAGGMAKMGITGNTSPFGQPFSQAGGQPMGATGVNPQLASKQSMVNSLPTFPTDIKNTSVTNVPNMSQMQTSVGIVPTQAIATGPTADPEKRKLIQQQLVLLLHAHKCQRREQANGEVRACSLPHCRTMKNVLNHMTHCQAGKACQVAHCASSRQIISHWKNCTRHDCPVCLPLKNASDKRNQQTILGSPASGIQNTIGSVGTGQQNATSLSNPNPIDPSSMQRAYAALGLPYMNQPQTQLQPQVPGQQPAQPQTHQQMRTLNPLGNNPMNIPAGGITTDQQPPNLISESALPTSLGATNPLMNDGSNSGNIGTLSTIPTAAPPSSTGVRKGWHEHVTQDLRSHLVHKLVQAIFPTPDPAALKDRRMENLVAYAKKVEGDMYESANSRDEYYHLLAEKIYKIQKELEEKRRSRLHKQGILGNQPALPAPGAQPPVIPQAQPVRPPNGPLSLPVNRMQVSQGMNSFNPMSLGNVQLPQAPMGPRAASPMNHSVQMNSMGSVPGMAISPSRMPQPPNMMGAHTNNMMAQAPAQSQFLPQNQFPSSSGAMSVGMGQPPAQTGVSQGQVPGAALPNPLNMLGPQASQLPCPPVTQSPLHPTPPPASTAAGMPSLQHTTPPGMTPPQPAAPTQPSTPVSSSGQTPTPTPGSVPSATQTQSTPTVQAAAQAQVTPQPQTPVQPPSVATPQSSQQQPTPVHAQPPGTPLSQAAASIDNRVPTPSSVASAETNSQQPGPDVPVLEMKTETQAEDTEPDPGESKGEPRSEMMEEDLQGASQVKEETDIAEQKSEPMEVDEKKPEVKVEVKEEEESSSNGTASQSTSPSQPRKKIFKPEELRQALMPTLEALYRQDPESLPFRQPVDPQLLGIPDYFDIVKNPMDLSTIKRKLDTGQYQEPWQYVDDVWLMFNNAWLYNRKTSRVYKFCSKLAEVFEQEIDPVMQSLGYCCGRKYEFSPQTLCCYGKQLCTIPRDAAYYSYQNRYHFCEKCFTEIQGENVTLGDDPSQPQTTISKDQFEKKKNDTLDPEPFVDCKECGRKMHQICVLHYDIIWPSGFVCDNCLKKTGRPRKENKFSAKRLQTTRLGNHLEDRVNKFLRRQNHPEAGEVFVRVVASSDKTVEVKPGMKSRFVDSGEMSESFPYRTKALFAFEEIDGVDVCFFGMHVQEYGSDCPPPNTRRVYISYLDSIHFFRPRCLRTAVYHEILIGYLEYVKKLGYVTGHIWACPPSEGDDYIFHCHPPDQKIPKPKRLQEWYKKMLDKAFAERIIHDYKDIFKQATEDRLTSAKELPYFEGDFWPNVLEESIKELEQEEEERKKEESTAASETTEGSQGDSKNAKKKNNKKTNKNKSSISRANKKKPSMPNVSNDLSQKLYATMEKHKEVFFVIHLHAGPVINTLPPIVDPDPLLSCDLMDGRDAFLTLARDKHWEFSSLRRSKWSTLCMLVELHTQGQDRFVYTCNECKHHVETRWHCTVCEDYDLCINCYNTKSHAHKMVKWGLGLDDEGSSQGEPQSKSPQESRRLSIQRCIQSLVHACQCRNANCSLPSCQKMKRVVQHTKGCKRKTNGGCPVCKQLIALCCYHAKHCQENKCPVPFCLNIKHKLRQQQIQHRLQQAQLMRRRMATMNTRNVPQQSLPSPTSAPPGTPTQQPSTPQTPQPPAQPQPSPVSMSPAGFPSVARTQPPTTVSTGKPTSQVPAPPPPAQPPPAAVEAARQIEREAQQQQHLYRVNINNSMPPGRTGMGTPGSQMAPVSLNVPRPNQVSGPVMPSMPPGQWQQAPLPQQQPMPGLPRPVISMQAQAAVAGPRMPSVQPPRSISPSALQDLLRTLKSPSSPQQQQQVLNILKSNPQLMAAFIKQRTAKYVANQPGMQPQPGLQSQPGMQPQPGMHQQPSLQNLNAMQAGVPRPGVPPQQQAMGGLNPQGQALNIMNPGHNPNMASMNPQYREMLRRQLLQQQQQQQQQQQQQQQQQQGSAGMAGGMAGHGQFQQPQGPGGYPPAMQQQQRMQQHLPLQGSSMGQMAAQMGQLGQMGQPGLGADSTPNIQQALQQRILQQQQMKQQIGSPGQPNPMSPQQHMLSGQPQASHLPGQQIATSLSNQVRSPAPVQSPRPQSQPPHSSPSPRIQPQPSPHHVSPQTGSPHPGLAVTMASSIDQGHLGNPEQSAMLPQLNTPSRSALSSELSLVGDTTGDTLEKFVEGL
UniProt Q14247: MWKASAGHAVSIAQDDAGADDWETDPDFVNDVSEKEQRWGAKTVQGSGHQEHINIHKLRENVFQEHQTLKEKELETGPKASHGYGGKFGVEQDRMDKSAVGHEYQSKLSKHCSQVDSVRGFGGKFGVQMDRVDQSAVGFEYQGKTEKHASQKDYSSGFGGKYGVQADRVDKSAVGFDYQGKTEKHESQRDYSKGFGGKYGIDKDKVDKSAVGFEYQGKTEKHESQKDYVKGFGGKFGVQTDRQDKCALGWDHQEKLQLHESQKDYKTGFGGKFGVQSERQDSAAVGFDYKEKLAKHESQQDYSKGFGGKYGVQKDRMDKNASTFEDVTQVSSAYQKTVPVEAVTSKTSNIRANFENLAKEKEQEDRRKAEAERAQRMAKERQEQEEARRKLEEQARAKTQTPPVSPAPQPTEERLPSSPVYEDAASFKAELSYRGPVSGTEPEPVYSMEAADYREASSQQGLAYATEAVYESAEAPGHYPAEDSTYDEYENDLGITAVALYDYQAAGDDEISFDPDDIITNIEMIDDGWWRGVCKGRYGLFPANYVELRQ
UniProt P26232: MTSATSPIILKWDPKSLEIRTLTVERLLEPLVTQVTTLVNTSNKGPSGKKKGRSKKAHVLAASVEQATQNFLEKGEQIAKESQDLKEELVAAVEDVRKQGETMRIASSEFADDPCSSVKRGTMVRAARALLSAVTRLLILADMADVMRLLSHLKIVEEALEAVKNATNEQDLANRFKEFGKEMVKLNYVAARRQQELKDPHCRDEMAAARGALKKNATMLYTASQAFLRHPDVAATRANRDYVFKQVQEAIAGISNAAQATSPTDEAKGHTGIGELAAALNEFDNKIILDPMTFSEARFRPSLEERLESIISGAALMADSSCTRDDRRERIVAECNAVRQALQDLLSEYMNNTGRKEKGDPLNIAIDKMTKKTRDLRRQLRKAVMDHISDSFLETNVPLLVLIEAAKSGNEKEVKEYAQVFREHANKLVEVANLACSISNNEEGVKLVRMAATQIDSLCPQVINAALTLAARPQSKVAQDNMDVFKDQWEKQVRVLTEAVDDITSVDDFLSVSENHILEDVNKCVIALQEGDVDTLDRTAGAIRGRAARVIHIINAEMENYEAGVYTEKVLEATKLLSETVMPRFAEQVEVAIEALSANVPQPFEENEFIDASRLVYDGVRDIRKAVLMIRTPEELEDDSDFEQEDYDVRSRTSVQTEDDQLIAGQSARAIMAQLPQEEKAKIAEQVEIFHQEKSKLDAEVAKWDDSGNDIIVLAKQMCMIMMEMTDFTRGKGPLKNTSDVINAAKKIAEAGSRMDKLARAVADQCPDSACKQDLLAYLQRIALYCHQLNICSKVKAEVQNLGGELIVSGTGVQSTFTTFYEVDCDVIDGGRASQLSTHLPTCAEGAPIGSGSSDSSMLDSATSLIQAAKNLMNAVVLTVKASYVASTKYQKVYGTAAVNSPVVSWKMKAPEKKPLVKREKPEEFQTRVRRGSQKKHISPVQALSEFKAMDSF
UniProt P55060: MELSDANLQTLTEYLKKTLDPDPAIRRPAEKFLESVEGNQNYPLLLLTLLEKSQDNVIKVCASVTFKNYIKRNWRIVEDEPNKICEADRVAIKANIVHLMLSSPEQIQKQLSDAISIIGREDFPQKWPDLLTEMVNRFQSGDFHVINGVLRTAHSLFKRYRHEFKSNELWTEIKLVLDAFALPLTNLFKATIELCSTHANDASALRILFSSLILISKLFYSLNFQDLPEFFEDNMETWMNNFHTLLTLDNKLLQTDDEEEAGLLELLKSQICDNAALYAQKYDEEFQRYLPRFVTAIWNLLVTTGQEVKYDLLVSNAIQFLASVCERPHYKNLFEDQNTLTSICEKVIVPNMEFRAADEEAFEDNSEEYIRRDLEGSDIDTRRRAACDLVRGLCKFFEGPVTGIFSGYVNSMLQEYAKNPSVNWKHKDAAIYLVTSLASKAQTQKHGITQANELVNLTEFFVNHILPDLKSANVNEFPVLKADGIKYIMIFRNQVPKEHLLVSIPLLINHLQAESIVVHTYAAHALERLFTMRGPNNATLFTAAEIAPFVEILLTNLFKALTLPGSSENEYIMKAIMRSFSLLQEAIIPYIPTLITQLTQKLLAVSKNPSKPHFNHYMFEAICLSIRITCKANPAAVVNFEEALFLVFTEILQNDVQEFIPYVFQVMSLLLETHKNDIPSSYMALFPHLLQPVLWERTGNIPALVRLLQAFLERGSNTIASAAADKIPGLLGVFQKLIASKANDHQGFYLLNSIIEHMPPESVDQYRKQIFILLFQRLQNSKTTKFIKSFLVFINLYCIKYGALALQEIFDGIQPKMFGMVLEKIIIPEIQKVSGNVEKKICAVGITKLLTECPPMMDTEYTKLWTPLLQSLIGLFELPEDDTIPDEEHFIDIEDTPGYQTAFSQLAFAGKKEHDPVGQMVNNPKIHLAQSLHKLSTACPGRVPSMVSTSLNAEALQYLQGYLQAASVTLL
UniProt Q9P013: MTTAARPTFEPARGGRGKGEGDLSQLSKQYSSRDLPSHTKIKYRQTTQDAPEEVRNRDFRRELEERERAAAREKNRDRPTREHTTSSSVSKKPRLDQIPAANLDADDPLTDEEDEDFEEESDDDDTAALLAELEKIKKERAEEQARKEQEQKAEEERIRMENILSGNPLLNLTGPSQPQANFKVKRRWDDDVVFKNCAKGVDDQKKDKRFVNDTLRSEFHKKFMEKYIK
UniProt P49711: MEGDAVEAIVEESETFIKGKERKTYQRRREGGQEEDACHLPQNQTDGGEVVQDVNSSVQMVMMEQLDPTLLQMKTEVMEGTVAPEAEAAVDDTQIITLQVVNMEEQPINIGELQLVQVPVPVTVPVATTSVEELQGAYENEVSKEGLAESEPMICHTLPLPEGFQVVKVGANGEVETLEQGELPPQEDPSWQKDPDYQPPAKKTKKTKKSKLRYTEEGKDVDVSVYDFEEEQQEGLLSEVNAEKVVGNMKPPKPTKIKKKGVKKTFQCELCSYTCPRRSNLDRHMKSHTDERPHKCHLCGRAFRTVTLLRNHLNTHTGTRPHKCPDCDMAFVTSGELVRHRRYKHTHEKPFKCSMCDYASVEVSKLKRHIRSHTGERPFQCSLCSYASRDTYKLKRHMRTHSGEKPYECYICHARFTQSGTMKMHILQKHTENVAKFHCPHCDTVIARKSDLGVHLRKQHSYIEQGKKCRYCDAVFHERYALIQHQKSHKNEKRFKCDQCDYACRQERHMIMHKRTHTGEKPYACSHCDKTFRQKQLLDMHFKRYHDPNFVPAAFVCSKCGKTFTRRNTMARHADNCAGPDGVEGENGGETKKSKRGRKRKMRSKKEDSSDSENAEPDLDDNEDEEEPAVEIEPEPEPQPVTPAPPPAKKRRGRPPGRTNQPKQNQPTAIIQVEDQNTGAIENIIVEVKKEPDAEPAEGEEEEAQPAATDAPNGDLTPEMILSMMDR
UniProt Q69YN2: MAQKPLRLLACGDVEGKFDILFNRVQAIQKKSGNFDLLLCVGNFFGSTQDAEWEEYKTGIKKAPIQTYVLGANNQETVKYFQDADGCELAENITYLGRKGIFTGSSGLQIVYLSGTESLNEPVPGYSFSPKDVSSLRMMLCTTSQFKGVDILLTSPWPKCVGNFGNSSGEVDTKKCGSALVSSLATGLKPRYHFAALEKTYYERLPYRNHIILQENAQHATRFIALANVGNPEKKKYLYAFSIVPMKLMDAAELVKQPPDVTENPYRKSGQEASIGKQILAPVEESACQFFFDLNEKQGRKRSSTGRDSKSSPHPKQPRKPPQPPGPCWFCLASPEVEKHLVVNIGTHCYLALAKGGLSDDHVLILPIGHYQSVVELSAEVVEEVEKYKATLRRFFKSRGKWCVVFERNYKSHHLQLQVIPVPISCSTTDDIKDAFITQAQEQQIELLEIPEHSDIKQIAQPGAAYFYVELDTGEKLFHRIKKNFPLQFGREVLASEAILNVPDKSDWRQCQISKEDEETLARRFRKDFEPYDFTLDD

Tests used:
Assay in all cases: log2 fold change, soluble protein after heating vs DMSO (PISA); higher = thermal stabilisation; K562 lysate, 10 uM; active = over 0.2 and 3.5 SD of the protein, either way, in both replicates (recomputed)
[1] = compound: NCC(=O)Nc1ccc(-n2nc(C(F)(F)F)cc2-c2ccc3c(ccc4ccccc43)c2)cc1
Method in brief: (§1)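 Soluble protein was defined as the supernatant remaining after 21,000xg for 90 min, following pooling of heated aliquots and adjustment to 0.5% NP-40 at 4°C. Before that, crude K562 extract at 1 mg/mL protein in PBS pH 7.4 with 1 mM MgCl2 was treated with 10 μM compound for 30 min and heated for 3 min across 48°C-58°C. Quantification used TMTpro 16plex LC-MS/MS with channel sums equalised, and values are log-two fold changes in thermal stability relative to solvent controls from duplicates.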

vorinostat = compound: O=C(CCCCCCC(=O)Nc1ccccc1)NO [vorinostat]
Method in brief: as §1

silmitasertib = compound: O=C(O)c1ccc2c(c1)nc(Nc1cccc(Cl)c1)c1ccncc12 [silmitasertib]
Method in brief: as §1

[2] = compound: O=C1NC(=O)C(c2cnc3ccccn23)=C1c1cn2c3c(cc(F)cc13)CN(C(=O)N1CCCCC1)CC2
Method in brief: as §1

entospletinib = compound: c1cn2cc(-c3ccc4cn[nH]c4c3)nc(Nc3ccc(N4CCOCC4)cc3)c2n1 [entospletinib]
Method in brief: as §1

Measured: log2 fold change

CREBBP (UniProt Q92793)
inactive: [1] 0.018 | vorinostat -0.276 | silmitasertib 0.15 | [2] -0.018 | entospletinib 0.04

CTTN (UniProt Q14247)
inactive: [1] -0.005 | vorinostat 0.073 | silmitasertib -0.034 | [2] 0 | entospletinib 0

CTNNA2 (UniProt P26232)
inactive: [1] 0.048 | vorinostat -0.057 | silmitasertib -0.015 | [2] 0.013 | entospletinib -0.001

CSE1L (UniProt P55060)
inactive: [1] -0.004 | vorinostat -0.103 | silmitasertib 0.021 | [2] -0.024 | entospletinib 0.032

CWC15 (UniProt Q9P013)
inactive: [1] 0.01 | vorinostat 0.065 | silmitasertib 0.02 | [2] 0.016 | entospletinib 0.036

CRYM-AS1 (UniProt A6NIL9)
inactive: [1] 0.235 | vorinostat 0.06 | silmitasertib 0.003 | [2] 0.157 | entospletinib -0.004

CTCF (UniProt P49711)
inactive: [1] 0.005 | vorinostat 0.004 | silmitasertib 0.029 | [2] -0.008 | entospletinib -0.031

CWF19L1 (UniProt Q69YN2)
inactive: [1] -0.026 | vorinostat -0.11 | silmitasertib -0.025 | [2] -0.044 | entospletinib -0.007

CTSB (UniProt P07858)
inactive: [1] 0.004 | vorinostat 0.03 | silmitasertib -0.027 | [2] 0.04 | entospletinib 0.001
